The values that follow come from publication PMC9178409.

Results are given in words; binding and its absence hold for the method and conditions named. For some assays here: Binding seen in cells or lysates may run through a third protein. Some binding calls cover weakened binding; strength is not graded here.

The target of experiment [1] is T1, Fbxo7 aa 334-522 (yeast two-hybrid bait) (UniProt Q9Y3I1).
T1 sequence: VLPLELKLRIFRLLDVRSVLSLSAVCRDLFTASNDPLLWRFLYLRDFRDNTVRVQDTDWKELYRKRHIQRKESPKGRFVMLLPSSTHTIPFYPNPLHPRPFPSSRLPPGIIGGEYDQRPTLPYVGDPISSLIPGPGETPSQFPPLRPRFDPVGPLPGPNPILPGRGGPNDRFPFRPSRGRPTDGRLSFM
The experiment can be described thus: two-hybrid; yeast two-hybrid screen with aa 334-522 of Fbxo7 as bait.

Experiment [2] has as its target T2, Fbxo7 (endogenous, isoforms 1 and 2) (human (endogenous in CCRF-CEM)) (UniProt Q9Y3I1).
T2 sequence: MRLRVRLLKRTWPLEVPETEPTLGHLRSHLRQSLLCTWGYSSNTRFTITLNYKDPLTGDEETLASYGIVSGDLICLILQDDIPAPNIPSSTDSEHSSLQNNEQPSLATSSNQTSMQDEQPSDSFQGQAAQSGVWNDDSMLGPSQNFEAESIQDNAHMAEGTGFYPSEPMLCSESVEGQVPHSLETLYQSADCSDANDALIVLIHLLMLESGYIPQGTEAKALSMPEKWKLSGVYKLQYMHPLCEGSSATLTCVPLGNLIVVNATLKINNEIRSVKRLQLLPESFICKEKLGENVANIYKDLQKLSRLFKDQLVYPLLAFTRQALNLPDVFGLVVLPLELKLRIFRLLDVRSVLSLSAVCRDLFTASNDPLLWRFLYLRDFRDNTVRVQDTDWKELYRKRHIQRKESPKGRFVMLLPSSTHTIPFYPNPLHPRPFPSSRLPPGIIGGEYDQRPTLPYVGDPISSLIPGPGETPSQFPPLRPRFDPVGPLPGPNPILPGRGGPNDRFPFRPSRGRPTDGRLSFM
The experiment is described as follows: co-IP; endogenous Fbxo7 immunoprecipitated from CCRF-CEM lysate (Tween Lysis Buffer, 4°C, Protein A/G agarose), immunoblot for PFKP; also from cells treated for 24 h with DMSO, 1 μM palbociclib or 0.1 μM of either of two Cdk6 PROTACs. On the technique in general: A western blot detects proteins with antibodies after separation by electrophoresis.

B1: 6-PFKP aa 385-784 (yeast two-hybrid prey) (domain or fragment, UniProt Q01813 385-784)
chain: RSFAGNLNTYKRLAIKLPDDQIPKTNCNVAVINVGAPAAGMNAAVRSAVRVGIADGHRMLAIYDGFDGFAKGQIKEIGWTDVGGWTGQGGSILGTKRVLPGKYLEEIATQMRTHSINALLIIGGFEAYLGLLELSAAREKHEEFCVPMVMVPATVSNNVPGSDFSIGADTALNTITDTCDRIKQSASGTKRRVFIIETMGGYCGYLANMGGLAAGADAAYIFEEPFDIRDLQSNVEHLTEKMKTTIQRGLVLRNESCSENYTTDFIYQLYSEEGKGVFDCRKNVLGHMQQGGAPSPFDRNFGTKISARAMEWITAKLKEARGRGKKFTTDDSICVLGISKRNVIFQPVAELKKQTDFEHRIPKEQWWLKLRPLMKILAKYKASYDVSDSGQLEHVQPWSV
For B1, the binding entry in experiment [1] is listed as “binds”.

B2: PFKP (endogenous) (enzyme, UniProt Q01813 1-784)
chain: MDADDSRAPKGSLRKFLEHLSGAGKAIGVLTSGGDAQGMNAAVRAVVRMGIYVGAKVYFIYEGYQGMVDGGSNIAEADWESVSSILQVGGTIIGSARCQAFRTREGRLKAACNLLQRGITNLCVIGGDGSLTGANLFRKEWSGLLEELARNGQIDKEAVQKYAYLNVVGMVGSIDNDFCGTDMTIGTDSALHRIIEVVDAIMTTAQSHQRTFVLEVMGRHCGYLALVSALACGADWVFLPESPPEEGWEEQMCVKLSENRARKKRLNIIIVAEGAIDTQNKPITSEKIKELVVTQLGYDTRVTILGHVQRGGTPSAFDRILASRMGVEAVIALLEATPDTPACVVSLNGNHAVRLPLMECVQMTQDVQKAMDERRFQDAVRLRGRSFAGNLNTYKRLAIKLPDDQIPKTNCNVAVINVGAPAAGMNAAVRSAVRVGIADGHRMLAIYDGFDGFAKGQIKEIGWTDVGGWTGQGGSILGTKRVLPGKYLEEIATQMRTHSINALLIIGGFEAYLGLLELSAAREKHEEFCVPMVMVPATVSNNVPGSDFSIGADTALNTITDTCDRIKQSASGTKRRVFIIETMGGYCGYLANMGGLAAGADAAYIFEEPFDIRDLQSNVEHLTEKMKTTIQRGLVLRNESCSENYTTDFIYQLYSEEGKGVFDCRKNVLGHMQQGGAPSPFDRNFGTKISARAMEWITAKLKEARGRGKKFTTDDSICVLGISKRNVIFQPVAELKKQTDFEHRIPKEQWWLKLRPLMKILAKYKASYDVSDSGQLEHVQPWSV
B2: the binding result in experiment [2] is reported as “binds”.
